In publication PMC4381594:
No constants are given. Whether binding was seen depends on the method and setting. In cells and extracts the contact can be indirect. Binding calls can cover weak binding; strength is not graded here.

Sequences of proteins named here, by UniProt entry; tags and fusion partners are left off. A change or cut given only in a name is not applied to a line headed by its entry.
UniProt P17861: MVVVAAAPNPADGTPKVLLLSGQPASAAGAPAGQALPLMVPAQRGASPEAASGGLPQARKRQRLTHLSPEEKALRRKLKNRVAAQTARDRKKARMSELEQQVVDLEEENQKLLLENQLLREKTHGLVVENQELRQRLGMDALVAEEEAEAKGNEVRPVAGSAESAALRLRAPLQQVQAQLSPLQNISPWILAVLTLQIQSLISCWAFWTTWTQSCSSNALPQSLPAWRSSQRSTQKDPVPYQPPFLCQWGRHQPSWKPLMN
UniProt Q92830: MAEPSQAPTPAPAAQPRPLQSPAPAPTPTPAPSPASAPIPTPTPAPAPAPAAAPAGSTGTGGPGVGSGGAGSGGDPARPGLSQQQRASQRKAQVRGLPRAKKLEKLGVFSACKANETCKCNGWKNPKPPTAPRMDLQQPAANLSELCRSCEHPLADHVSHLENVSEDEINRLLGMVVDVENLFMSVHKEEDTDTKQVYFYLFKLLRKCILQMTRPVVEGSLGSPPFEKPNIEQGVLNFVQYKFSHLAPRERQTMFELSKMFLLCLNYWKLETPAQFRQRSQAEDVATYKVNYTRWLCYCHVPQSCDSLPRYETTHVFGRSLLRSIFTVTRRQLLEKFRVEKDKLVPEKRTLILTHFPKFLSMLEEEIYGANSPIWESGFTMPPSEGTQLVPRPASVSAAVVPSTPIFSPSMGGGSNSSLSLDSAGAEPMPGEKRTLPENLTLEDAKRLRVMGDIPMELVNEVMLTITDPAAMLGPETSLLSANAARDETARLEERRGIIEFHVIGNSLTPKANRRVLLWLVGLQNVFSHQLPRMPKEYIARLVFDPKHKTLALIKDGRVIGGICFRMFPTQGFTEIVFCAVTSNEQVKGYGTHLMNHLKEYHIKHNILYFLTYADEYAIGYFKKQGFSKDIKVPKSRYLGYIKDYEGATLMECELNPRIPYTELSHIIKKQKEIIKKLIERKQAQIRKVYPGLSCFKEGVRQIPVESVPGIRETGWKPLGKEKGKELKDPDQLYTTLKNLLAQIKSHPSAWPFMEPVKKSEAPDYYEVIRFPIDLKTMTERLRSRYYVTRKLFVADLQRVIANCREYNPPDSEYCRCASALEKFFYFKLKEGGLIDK

Biological target: XBP-1S-K16R mutant (HA-tagged) (human) (UniProt P17861)
Test: co-IP; lysates of cells co-transfected with GCN5 and HA-tagged XBP-1S WT or K16R; IP with anti-HA antibody, immunoblot with anti-GCN5

binding: binds
Substance: general control nonderepressible 5 (GCN5) (from UniProt Q92830 1-837) (enzyme)
